From US20100041596A1 come the findings set out here.

By UniProt entry, the sequences of proteins in these tests, tags left out. Where a name states a change or a piece, a line headed by the entry shows the natural chain unless it says otherwise.
UniProt P25942: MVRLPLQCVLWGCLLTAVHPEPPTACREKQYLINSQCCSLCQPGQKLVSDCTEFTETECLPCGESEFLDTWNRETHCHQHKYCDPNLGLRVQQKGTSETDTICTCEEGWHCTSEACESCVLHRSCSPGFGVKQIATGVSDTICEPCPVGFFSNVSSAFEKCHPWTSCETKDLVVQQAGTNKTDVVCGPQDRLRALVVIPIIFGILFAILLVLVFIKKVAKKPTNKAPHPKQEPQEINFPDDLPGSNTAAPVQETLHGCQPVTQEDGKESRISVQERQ
UniProt O00220: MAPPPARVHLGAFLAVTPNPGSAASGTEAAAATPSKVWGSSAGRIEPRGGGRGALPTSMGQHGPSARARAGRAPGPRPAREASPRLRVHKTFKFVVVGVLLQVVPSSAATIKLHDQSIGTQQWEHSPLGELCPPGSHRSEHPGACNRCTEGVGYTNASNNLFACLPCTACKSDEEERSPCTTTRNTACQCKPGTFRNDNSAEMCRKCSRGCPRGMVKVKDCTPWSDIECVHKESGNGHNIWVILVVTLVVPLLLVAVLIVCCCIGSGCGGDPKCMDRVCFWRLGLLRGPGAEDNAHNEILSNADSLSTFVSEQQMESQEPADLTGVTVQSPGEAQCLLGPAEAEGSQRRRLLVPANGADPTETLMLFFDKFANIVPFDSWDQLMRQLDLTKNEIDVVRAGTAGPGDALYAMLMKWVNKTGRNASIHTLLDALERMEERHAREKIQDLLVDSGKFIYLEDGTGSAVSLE
UniProt P20333: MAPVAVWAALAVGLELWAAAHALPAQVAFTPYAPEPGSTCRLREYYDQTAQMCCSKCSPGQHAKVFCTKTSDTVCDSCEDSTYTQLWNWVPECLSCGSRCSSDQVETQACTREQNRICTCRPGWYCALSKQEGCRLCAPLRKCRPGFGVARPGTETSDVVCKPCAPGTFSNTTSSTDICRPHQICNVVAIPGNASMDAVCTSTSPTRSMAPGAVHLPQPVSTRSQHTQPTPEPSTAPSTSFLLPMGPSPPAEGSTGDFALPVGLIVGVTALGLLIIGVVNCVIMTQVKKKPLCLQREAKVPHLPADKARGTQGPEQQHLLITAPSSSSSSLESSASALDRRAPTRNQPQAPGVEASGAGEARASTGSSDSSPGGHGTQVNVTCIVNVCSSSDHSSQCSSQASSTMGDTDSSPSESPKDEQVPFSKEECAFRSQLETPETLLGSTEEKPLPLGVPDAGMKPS
UniProt P25445: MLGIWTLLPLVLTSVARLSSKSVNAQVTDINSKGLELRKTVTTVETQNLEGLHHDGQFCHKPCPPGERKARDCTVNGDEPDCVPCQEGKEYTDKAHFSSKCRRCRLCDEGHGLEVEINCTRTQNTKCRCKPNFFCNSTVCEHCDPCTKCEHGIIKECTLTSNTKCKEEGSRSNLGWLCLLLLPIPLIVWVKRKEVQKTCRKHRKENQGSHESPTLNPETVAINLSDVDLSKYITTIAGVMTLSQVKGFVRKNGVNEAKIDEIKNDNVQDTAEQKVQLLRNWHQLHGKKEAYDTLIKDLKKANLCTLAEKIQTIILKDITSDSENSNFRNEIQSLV

Results are given in words; binding and its absence hold for the method and conditions named. For part of these data: Binding seen in cells or lysates may run through a third protein. Some entries that bind do so weakly or less than the wild type.

For experiment [1], the target named is CD40 chimeras with CFP or YFP (FIG. 3C) (Homo sapiens (Human)) (UniProt P25942). In words: flow cytometric FRET between CFP and YFP fusions. For orientation: Flow cytometry measures light scatter and fluorescence of single cells or particles in a stream.
Experiment [2] deals with DR4 chimeras with CFP or YFP (FIG. 3C) (Homo sapiens (Human)) (UniProt O00220). Put plainly: flow cytometric FRET between CFP and YFP fusions.
The target in experiment [3] is N-terminal region of the ECD of p80 (yeast two-hybrid) (Homo sapiens (Human)) (UniProt P20333). Put plainly: yeast two-hybrid interaction assay.
In experiment [4] the target is p80ΔCD-YFP (Homo sapiens (Human)) (UniProt P20333). Put plainly: flow cytometric FRET, 293T cells.
In experiment [5] the target is p80 TNFR, full-length (Homo sapiens (Human)) (UniProt P20333). In words: co-immunoprecipitation with C-terminal-specific anti-p80 antibody, anti-HA blot, 293T cells.
Experiment [6] addresses HA-Fas 1-210:GFP [GFP: P42212]. In words: co-immunoprecipitation with anti-GFP, anti-Fas C-terminal blot.

Take “CD40 chimeras with CFP or YFP (FIG. 3C) (from UniProt P25942 21-220) (receptor)”: in experiment [1], the binding result is reported as “binds”.
As to “DR4 chimeras with CFP or YFP (FIG. 3C) (from UniProt O00220 24-267) (receptor)”, the binding entry in experiment [2] is listed as “binds”.
With “N-terminal region of the ECD of p80 (yeast two-hybrid) (from UniProt P20333 23-76) (receptor)”, the binding result in experiment [3] is given as “binds”.
As for “p80ΔCD-CFP (from UniProt P20333 23-292) (receptor)”, in experiment [4], the binding result is “binds”.
Turning to “p80ΔCD-HA (from UniProt P20333 23-292) (receptor)”, the binding entry in experiment [5] is recorded as “binds”.
Take “wild-type (WT) Fas (from UniProt P25445 26-335) (receptor)”: in experiment [6], the binding entry is given as “binds”.
